{"sequences": {"note": "Chains of the proteins cited; added tags and fusions are not shown. Lines headed by an entry give the natural chain unless they say otherwise; changes in a name come on top.", "UniProt P00746": "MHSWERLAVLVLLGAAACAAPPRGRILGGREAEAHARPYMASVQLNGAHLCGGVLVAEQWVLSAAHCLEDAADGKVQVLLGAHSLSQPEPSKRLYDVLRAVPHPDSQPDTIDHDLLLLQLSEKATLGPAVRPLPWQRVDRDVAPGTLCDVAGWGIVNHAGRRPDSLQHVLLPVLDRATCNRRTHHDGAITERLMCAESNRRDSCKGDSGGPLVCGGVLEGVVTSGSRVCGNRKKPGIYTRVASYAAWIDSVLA"}, "source": "patent US20170145112A1", "about": "(Genentech, published 2017)", "binders": {"B1": {"name": "hu20D12.v1 IgG (antibody, V domains shown)", "VH": "EVQLVQSGAEVKKPGASVKVSCKASGYTFTSYYMYWVRQAPGQGLEWIGEINPTNGGTNFNEKFKSRATLTVDTSTSTAYLELSSLRSEDTAVYYCAREGGFAYWGQGTLVTVSS", "VL": "DIQMTQSPSSLSASVGDRVTITCKASQNVDTDVAWFQQKPGKAPKGLIYSASSRYSGVPSRFSGSGSGTDFTLTISSLQPEDFATYYCQQYNNYPLTFGQGTKVEIK", "notes": "Expressed as full length IgG in CHO cells"}, "B2": {"name": "hu20D12.v2.0 Fab (Fab, V domains shown)", "VH": "B1 VH with N55S", "VL": "DIQMTQSPSSLSASVGDRVTITCKASQNVDTDVAWFQQKPGKAPKGLIYSASSRYSGVPSRFSGSGSGTDFTLTISSLQPEDFATYYCQQYNNYPLTFGQGTKVEIKR", "notes": "Fab expressed in E. coli; also called Hu20D12.v1.N54S; hu20D12.v1.N54S"}, "B3": {"name": "hu20D12.v2.2 Fab (Fab, V domains shown)", "VH": "B1 VH with N55S, G57D", "VL": "B2 VL"}, "B4": {"name": "hu20D12.v2.3 Fab (Fab, V domains shown)", "VH": "B1 VH with T54Y, N55S, G57D", "VL": "B2 VL with Y49R"}, "B5": {"name": "hu20D12.v2.4 Fab (Fab, V domains shown)", "VH": "B1 VH with N55S, G57E", "VL": "B2 VL"}, "B6": {"name": "hu20D12.v2.5 Fab (Fab, V domains shown)", "VH": "B1 VH with T54Y, N55S", "VL": "B2 VL"}, "B7": {"name": "hu20D12.v2.6 Fab (Fab, V domains shown)", "VH": "B1 VH with N55S", "VL": "B2 VL with Y49S"}, "B8": {"name": "hu20D12.v2.7 Fab (Fab, V domains shown)", "VH": "B1 VH with N55S", "VL": "B2 VL with Y49K"}, "B9": {"name": "hu20D12.v2.8 Fab (Fab, V domains shown)", "VH": "B1 VH with N55S", "VL": "B2 VL with Y49Q"}, "B10": {"name": "hu20D12.v2.9 Fab (Fab, V domains shown)", "VH": "B1 VH with E50W, N55S", "VL": "B2 VL"}, "B11": {"name": "hu20D12.v2.10 Fab (Fab, V domains shown)", "VH": "B1 VH with N55S", "VL": "B2 VL with Y55K"}, "B12": {"name": "hu20D12.v2.11 Fab (Fab, V domains shown)", "VH": "B1 VH with N55S", "VL": "B2 VL with Y55R"}, "B13": {"name": "hu20D12.v2.12 Fab (Fab, V domains shown)", "VH": "B1 VH with T54Y, N55S", "VL": "B2 VL with Y49R"}, "B14": {"name": "hu20D12.v2.13 Fab (Fab, V domains shown)", "VH": "B1 VH with N55S", "VL": "B2 VL with Y49R, N92E"}, "B15": {"name": "hu20D12.v2.14 Fab (Fab, V domains shown)", "VH": "B1 VH with N55S, G57E", "VL": "B2 VL with Y49R"}, "B16": {"name": "hu20D12.v2.15 Fab (Fab, V domains shown)", "VH": "B1 VH with T54Y, N55S, G57E", "VL": "B2 VL with Y49R"}, "B17": {"name": "hu20D12.v2.1 Fab (Fab, V domains shown)", "VH": "B1 VH with N55S", "VL": "B2 VL with Y49R"}}, "note": "Substitutions are numbered along the chain they refer to. Names may count otherwise. These are yes or no findings as the source states them, for the method shown. Some entries that bind do so weakly or less than the wild type."}
{"target": "Human complement Factor D, mature (human, UniProt P00746 27-253)", "assay": "SPR, IgG format"}
{"binder": "B1", "binding": "binds"}
{"target": "Human complement Factor D, mature (human) (UniProt P00746)", "assay": "SPR, Fab captured by anti-huFab"}
{"binder": "B2", "binding": "binds"}
{"target": "Human complement Factor D, mature (human) (UniProt P00746)", "assay": "Biacore after sustained delivery stress, 37 C, 4 weeks"}
{"binder": "B2", "binding": "binds"}
{"target": "Human complement Factor D, mature (human) (UniProt P00746)", "assay": "SPR, Fab captured by anti-huFab, human Factor D injected"}
{"binder": "B3", "binding": "binds"}
{"binder": "B4", "binding": "binds"}
{"binder": "B5", "binding": "binds"}
{"binder": "B6", "binding": "binds"}
{"binder": "B7", "binding": "binds"}
{"binder": "B8", "binding": "binds"}
{"binder": "B9", "binding": "binds"}
{"binder": "B10", "binding": "binds"}
{"binder": "B11", "binding": "binds"}
{"binder": "B12", "binding": "binds"}
{"binder": "B13", "binding": "binds"}
{"binder": "B14", "binding": "binds"}
{"binder": "B15", "binding": "binds"}
{"binder": "B16", "binding": "binds"}
{"target": "Human complement Factor D, mature (human) (UniProt P00746)", "assay": "antigen binding after sustained delivery stress, 37 C, 4 weeks"}
{"binder": "B17", "binding": "binds"}
{"target": "Human complement Factor D, mature (human) (UniProt P00746)", "assay": "1:1 complex purified on Superdex 200 and crystallised, 2.9 A data set"}
{"binder": "B2", "binding": "binds"}
